Common to all, as to type: cell-based
For data set [1], the system named is per3 cells. The data set is described as follows: DSPA drug sensitivity pattern, per3 cells. Particulars: drug sensitivity pattern of F25 + substance vs per3.
In data set [2] the test system is cells expressing Jagged-1. The data set is described as follows: DSPA drug sensitivity pattern, Jagged-1 cells. Particulars: drug sensitivity pattern of F25 + substance vs Jagged-1.
The test system of data set [3] is cells expressing per-1. The data set is described as follows: DSPA drug sensitivity pattern, per-1 cells. The following applies: drug sensitivity pattern of F25 + substance vs per-1.
For data set [4], the system named is cells expressing CD44/H-CAM. The data set is described as follows: DSPA drug sensitivity pattern, CD44/H-CAM cells. Particulars: drug sensitivity pattern of F25 + substance vs CD44/H-CAM.
Data set [5] concerns MM1 cells. The experiment in a line: DSPA drug sensitivity pattern, MM1 cells. Particulars: drug sensitivity pattern of F25 + substance vs MM1.
For data set [6], the system named is per2 cells. The experiment in a line: DSPA drug sensitivity pattern, per2 cells. The following applies: drug sensitivity pattern of F25 + substance vs per2.
The test system of data set [7] is FHO-6 cells. The data set is described as follows: DSPA drug sensitivity pattern, FHO-6 cells. The following applies: drug sensitivity pattern of F25 + substance vs FHO-6.
Data set [8] deals with FMDM2hwt-6 cells. The experiment in a line: DSPA drug sensitivity pattern, FMDM2hwt-6 cells. The following applies: drug sensitivity pattern of F25 + substance vs FMDM2hwt-6.
The subject of data set [9] is cells expressing CD44/3E. The experiment in a line: DSPA drug sensitivity pattern, CD44/3E cells. The following applies: drug sensitivity pattern of F25 + substance vs CD44/3E.
Data set [10] has as its system FBRCA1-13 cells. The data set is described as follows: DSPA drug sensitivity pattern, FBRCA1-13 cells. The following applies: drug sensitivity pattern of F25 + substance vs FBRCA1-13.
For data set [11], the system named is TERT-DN cells. The experiment in a line: DSPA drug sensitivity pattern, TERT-DN cells. Particulars: drug sensitivity pattern of F25 + substance vs TERT-DN.
Data set [12] concerns cells expressing p94-WT. The data set is described as follows: DSPA drug sensitivity pattern, p94-WT cells. Particulars: drug sensitivity pattern of F25 + substance vs p94-WT.
In data set [13] the test system is Max cells. The data set is described as follows: DSPA drug sensitivity pattern, Max cells. The following applies: drug sensitivity pattern of F25 + substance vs Max.
Data set [14] concerns Cyclin D1-11 cells. The data set is described as follows: DSPA drug sensitivity pattern, Cyclin D1-11 cells. The following applies: drug sensitivity pattern of F25 + substance vs Cyclin D1-.
Data set [15] deals with Bad-22 cells. The experiment in a line: DSPA drug sensitivity pattern, Bad-22 cells. The following applies: drug sensitivity pattern of F25 + substance vs Bad-22.
For data set [16], the system named is Bcl-2 cells. The data set is described as follows: DSPA drug sensitivity pattern, Bcl-2 cells. Particulars: drug sensitivity pattern of F25 + substance vs Bcl-2.
Data set [17] deals with FAPP-4 cells. The data set is described as follows: DSPA drug sensitivity pattern, FAPP-4 cells. The following applies: drug sensitivity pattern of F25 + substance vs FAPP-4.
Data set [18] relates to p27-3 cells. The experiment in a line: DSPA drug sensitivity pattern, p27-3 cells. The following applies: drug sensitivity pattern of F25 + substance vs p27-3.
The subject of data set [19] is PTEN-G129R cells. The data set is described as follows: DSPA drug sensitivity pattern, PTEN-G129R cells. Particulars: drug sensitivity pattern of F25 + substance vs PTEN-G129R.
The subject of data set [20] is cells expressing CD44/3s. The data set is described as follows: DSPA drug sensitivity pattern, CD44/3s cells. The following applies: drug sensitivity pattern of F25 + substance vs CD44/3s.
Data set [21] has as its system STAT2-4 cells. The experiment in a line: DSPA drug sensitivity pattern, STAT2-4 cells. Particulars: drug sensitivity pattern of F25 + substance vs STAT2-4.
In data set [22] the test system is AMY1 cells. The experiment in a line: DSPA drug sensitivity pattern, AMY1 cells. Particulars: drug sensitivity pattern of F25 + substance vs AMY1.

The amount applied is not stated for every result. Non-standard residues stand in square brackets, D forms with d. Residues, ends and D or L forms follow the SMILES beside them. Nle = CCCC[C@H](N)C(=O)O

On to `CCCC[C@@H](C=O)NC(=O)[C@H](CC(C)C)NC(=O)[C@H](CC(C)C)NC(C)=O` [ALLN] (Ac-Leu-Leu-[Nle]-aldehyde), for which the “correlation coefficient (r) with per3” value in data set [1] was 0.04. Also, the “correlation coefficient (r) with Jagged-1” value in data set [2] is −0.15. The “correlation coefficient (r) with per-1” value in data set [3] stood at 0.20. The “correlation coefficient (r) with CD44/H-CAM” value in [4] turned out to be 0.00. In addition, the “correlation coefficient (r) with MM1” value in [5] is recorded as 0.23. Moreover, the “correlation coefficient (r) with per2” value in data set [6] worked out at 0.24. For the same compound, the “correlation coefficient (r) with FHO-6” value in [7] is listed as 0.16. Further, the “correlation coefficient (r) with FMDM2hwt-6” value in data set [8] is on record as −0.27. The “correlation coefficient (r) with CD44/3E” value in data set [9] is −0.37. The “correlation coefficient (r) with FBRCA1-13” value in data set [10] was −0.07. Further, the “correlation coefficient (r) with TERT-DN” value in data set [11] worked out at 0.27. Moreover, in data set [12], the “correlation coefficient (r) with p94-WT” value stood at 0.32. Moreover, the “correlation coefficient (r) with Max” value in data set [13] was −0.08. In addition, in [14], the “correlation coefficient (r) with Cyclin D1-” value is −0.55. Besides, the “correlation coefficient (r) with Bad-22” value in [15] came to 0.03. In data set [16], the “correlation coefficient (r) with Bcl-2” value was found to be 0.05. Also, the “correlation coefficient (r) with FAPP-4” value in data set [17] is on record as −0.22. Moreover, in [18], the “correlation coefficient (r) with p27-3” value was −0.04. Further, the “correlation coefficient (r) with PTEN-G129R” value in data set [19] was −0.09. Further, in [20], the “correlation coefficient (r) with CD44/3s” value was −0.50. Also, in data set [21], the “correlation coefficient (r) with STAT2-4” value is on record as −0.02. Moreover, the “correlation coefficient (r) with AMY1” value in data set [22] amounted to 0.03.
In the case of `CC(C)(C)C(=O)Oc1ccc(S(=O)(=O)Nc2ccccc2C(=O)NCC(=O)O)cc1` [ONO5046], the “correlation coefficient (r) with per3” value in data set [1] is −0.01. Also, the “correlation coefficient (r) with Jagged-1” value in [2] was 0.42. In addition, the “correlation coefficient (r) with per-1” value in data set [3] is −0.05. The “correlation coefficient (r) with CD44/H-CAM” value in data set [4] is given as −0.01. In addition, the “correlation coefficient (r) with MM1” value in data set [5] was −0.01. For the same compound, in data set [6], the “correlation coefficient (r) with per2” value is −0.15. The “correlation coefficient (r) with FHO-6” value in data set [7] came to 0.12. Besides, the “correlation coefficient (r) with FMDM2hwt-6” value in [8] turned out to be 0.14. Besides, in data set [9], the “correlation coefficient (r) with CD44/3E” value was −0.04. Also, the “correlation coefficient (r) with FBRCA1-13” value in data set [10] was −0.07. Further, the “correlation coefficient (r) with TERT-DN” value in data set [11] is recorded as −0.28. In addition, the “correlation coefficient (r) with p94-WT” value in data set [12] is recorded as 0.20. In addition, the “correlation coefficient (r) with Max” value in [13] was −0.05. Further, the “correlation coefficient (r) with Cyclin D1-” value in [14] is −0.05. Besides, the “correlation coefficient (r) with Bad-22” value in data set [15] was 0.12. For the same compound, in data set [16], the “correlation coefficient (r) with Bcl-2” value is given as 0.14. In addition, the “correlation coefficient (r) with FAPP-4” value in data set [17] amounted to 0.03. Further, the “correlation coefficient (r) with p27-3” value in data set [18] is 0.37. Also, the “correlation coefficient (r) with PTEN-G129R” value in data set [19] is recorded as −0.29. The “correlation coefficient (r) with CD44/3s” value in [20] turned out to be 0.06. In data set [21], the “correlation coefficient (r) with STAT2-4” value is reported as 0.30. The “correlation coefficient (r) with AMY1” value in [22] is −0.18.
Regarding `C[C@@H](N)[C@H]1CC[C@H](C(=O)Nc2ccncc2)CC1` [Y27632], the “correlation coefficient (r) with per3” value in data set [1] worked out at 0.23. Further, in data set [2], the “correlation coefficient (r) with Jagged-1” value was −0.06. Besides, the “correlation coefficient (r) with per-1” value in [3] is given as 0.16. Also, the “correlation coefficient (r) with CD44/H-CAM” value in data set [4] was 0.01. The “correlation coefficient (r) with MM1” value in data set [5] was 0.10. For the same compound, the “correlation coefficient (r) with per2” value in data set [6] is on record as 0.28. For the same compound, the “correlation coefficient (r) with FHO-6” value in data set [7] worked out at 0.10. Further, the “correlation coefficient (r) with FMDM2hwt-6” value in data set [8] is −0.17. In addition, the “correlation coefficient (r) with CD44/3E” value in data set [9] was 0.00. Also, in data set [10], the “correlation coefficient (r) with FBRCA1-13” value is recorded as −0.04. Also, the “correlation coefficient (r) with TERT-DN” value in data set [11] is reported as 0.13. Moreover, in data set [12], the “correlation coefficient (r) with p94-WT” value was determined as 0.25. Further, the “correlation coefficient (r) with Max” value in data set [13] stood at 0.19. Also, in data set [14], the “correlation coefficient (r) with Cyclin D1-” value was −0.01. For the same compound, in [15], the “correlation coefficient (r) with Bad-22” value was found to be 0.12. The “correlation coefficient (r) with Bcl-2” value in data set [16] is reported as 0.08. Also, the “correlation coefficient (r) with FAPP-4” value in [17] was −0.29. Besides, the “correlation coefficient (r) with p27-3” value in data set [18] was found to be 0.36. The “correlation coefficient (r) with PTEN-G129R” value in data set [19] came to 0.35. Also, in data set [20], the “correlation coefficient (r) with CD44/3s” value is reported as −0.09. The “correlation coefficient (r) with STAT2-4” value in data set [21] is on record as 0.04. In data set [22], the “correlation coefficient (r) with AMY1” value amounted to 0.27.

These data come from patent publication US20040086901A1, “Database for analyzing gene function and method of analyzing gene function by dspa” (priority 2000, published 2004).
